Experimental data from PubChem BioAssay AID1439 (NMMLSC, 2008).
Out of some 220,000 compounds screened, about 770 (0.35%) were called active. The shares of active, inactive and inconclusive entries below differ from those in the screen. Rule as the data show it: active = binding response below about 49% or above about 150%; inconclusive = no clear call, values can overlap the other calls; inactive = in between.

Chains of the proteins cited; added tags and fusions are not shown.
UniProt P09471, whole entry, looked up: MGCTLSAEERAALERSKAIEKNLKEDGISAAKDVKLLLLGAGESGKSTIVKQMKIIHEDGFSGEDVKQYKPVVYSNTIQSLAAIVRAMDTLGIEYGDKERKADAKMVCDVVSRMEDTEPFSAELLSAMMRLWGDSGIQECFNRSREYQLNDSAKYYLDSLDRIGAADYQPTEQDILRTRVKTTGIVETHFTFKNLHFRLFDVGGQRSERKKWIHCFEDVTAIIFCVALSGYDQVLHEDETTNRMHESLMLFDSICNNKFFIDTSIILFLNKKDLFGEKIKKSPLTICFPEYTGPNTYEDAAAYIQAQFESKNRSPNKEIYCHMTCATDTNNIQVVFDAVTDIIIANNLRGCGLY

molecular target: Guanine nucleotide-binding protein G(o) subunit alpha (Homo sapiens) (UniProt P09471); assay: RGS7-Galphao binding modulators, primary screen, biochemical, multiplexed bead flow cytometry (AID 1439); details: at 10 µM, actives lie on both sides;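 also: fluorescent Galphao held in activated GDP-AlF4 state binding bead-coupled RGS7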

SMILES | binding response (% of control)
CC1CN(c2ccc(NC(=S)Nc3ccc(N4CC(C)OC(C)C4)cc3)cc2)CC(C)O1 (stereo unspecified) | inconclusive: 95%
Cc1cc(-c2csc(N)n2)c(C)n1Cc1ccccc1 | inconclusive: 98.2%
O=C(CNc1ccc(Cl)cc1)c1ccc(Br)cc1 | inconclusive: 91.4%
Cc1cc(Cl)n2ncc(-c3ccccc3)c2n1 | inconclusive: 123%
COc1ccccc1NC(=O)C1=C(C)NC(=O)NC1c1cccs1 (stereo unspecified) | inactive: 93.4%
CC(O)[C@H]1CNC(=O)C(=O)N1CC1(c2ccccc2)CC1 (stereo partly specified) | inconclusive: 102%
C/C(=N\NC(=S)Nc1cc(S(=O)(=O)N2CCOCC2)ccc1Cl)c1ccc(N2CCOCC2)cc1 | inconclusive: 123%
Cc1[nH]c2ccccc2c1/C=N/Nc1ccccc1[N+](=O)[O-] | inconclusive: 84%
O=[N+]([O-])C(/C=C(/Cl)[N+](=O)[O-])=C(N1CCCCC1)N1CCCCC1 | inconclusive: -236%
CC(=O)NC(CSc1cc(C)nc2ccc(Br)cc12)C(=O)O (stereo unspecified) | inconclusive: 311%
COc1ccc(OS(=O)(=O)c2c(C)noc2C)cc1 | inconclusive: 98.4%
Cc1onc(-c2ccccc2)c1-c1nc2cc(Cl)ccc2c(=O)o1 | inconclusive: 112%
COC(=O)c1cccc(C(=O)N2CCCC(CNC(=O)c3ccccc3Cl)C2)c1 (stereo unspecified) | inconclusive: 56.3%
Cc1cc2c(=O)n(CC(=O)N3CCN(c4ccc(F)cc4)CC3)cnc2s1 | inactive: 95.9%
O=C(CSc1ccc2nnc(-c3ccccc3)n2n1)N1CCCc2ccccc21 | active: 207% [activator]
Cc1ccccc1NC(=O)Cc1nnc(NC(=O)Nc2ccccc2F)s1 | inconclusive: 110%
Cc1cc(=O)n2[nH]c(-c3ccc(C(C)(C)C)cc3)cc2n1 | inconclusive: 81.6%
CCOc1ccc(-n2cc(-c3ccc(OC)c(OC)c3)[nH]c2=S)cc1 | inconclusive: 99%
Cc1nc(-c2ccccc2)sc1C1(C)CC(c2cccc([N+](=O)[O-])c2)=NO1 (stereo unspecified) | inconclusive: 104%

SMILES | binding response (% of control)
Cc1ccc(S(=O)(=O)NCCc2nnc3ccc(SCC(=O)Nc4nc5ccccc5s4)nn23)cc1 | inactive: 109%
Cn1c(Cn2c(=O)sc3ccccc32)nnc1SCC(=O)NCc1ccccc1 | inactive: 99.2%
COCCNc1nc(C)cc(-c2cc(C(=O)NC3CCCC3)on2)n1 | inconclusive: 130%
O=C(O)CC(CC(=O)Nc1ccc(Oc2ccccc2)cc1)c1ccccc1 (stereo unspecified) | inconclusive: 189%
COc1ccc(-c2nn(-c3ccccc3)cc2C(=O)NC(=S)Nc2cc(Cl)ccc2Cl)cc1 | inconclusive: 110%
CCn1cc(C(=O)O)c(=O)c2cc(F)c(N3CCN(C(=S)NC(=O)c4cccc(C)c4)CC3)cc21 | inconclusive: 90.8%
CC1(c2nnc(-c3ccncc3)o2)CC(c2ccc([N+](=O)[O-])cc2)=NO1 (stereo unspecified) | inconclusive: 134%
CCOCCN(C(=O)c1ccccc1Cl)c1ccccc1 | inconclusive: 95.7%
c1ccc(N2CCCCC2)c(Nc2nc3ccccc3n3cnnc23)c1 | inconclusive: 16.3%
Cc1ccc(S(=O)(=O)N2CCCCC2)cc1NC(=O)CNCc1ccco1 | inconclusive: 127%
Cc1ccc(O)c(-c2cc(C(=O)Nc3ccc(S(=O)(=O)Nc4nccc(C)n4)cc3)[nH]n2)c1 | inconclusive: 78.5%
COC(=O)c1ccccc1NC(=O)c1cccc(NC(=O)C(C)C)c1 | inactive: 98.8%
COc1ccc(Nc2ccc(S(=O)(=O)N3CCCCC3)cc2[N+](=O)[O-])cc1OC | inactive: 115%
Cc1ccc(NC(=O)c2nc[nH]c2C(=O)N2CCC(C)CC2)cc1 | inconclusive: 36.3%
COc1ccc(C(=O)NC(C)c2ccccc2)cc1Br (stereo unspecified) | inconclusive: 111%
Cn1c(Cc2ccc3c(c2)OCO3)nnc1SCC(=O)NC1CCCC1 | inactive: 91.2%
O=C(N/N=C/c1ccc([N+](=O)[O-])o1)c1cccc(S(=O)(=O)N2CCOCC2)c1 | inconclusive: 95.6%
COc1ccccc1NS(=O)(=O)c1ccc(Cl)c(NC(=O)c2sc3cc(Cl)ccc3c2Cl)c1 | inconclusive: 97.4%
CC1=NN(C(=O)Cc2ccc([N+](=O)[O-])cc2)C(O)(C(F)(F)C(F)(F)F)C1 (stereo unspecified) | inconclusive: -130%

SMILES | binding response (% of control)
O=Cc1c(Cl)nc2ccccn2c1=O | inconclusive: 114%
O=C1CC(N2CCOCC2)C(=O)N1c1ccc(Cl)cc1 (stereo unspecified) | inconclusive: 94.8%
COc1ccc(C2CC(c3ccccc3)Nc3nc(NS(C)(=O)=O)nn32)cc1 (stereo unspecified) | inconclusive: 99.4%
NS(=O)(=O)c1ccc(CCNC(=O)Cc2ccccc2[N+](=O)[O-])cc1 | inconclusive: 120%
Cc1nn(-c2ccccc2)cc1/C=N/NC(N)=S | inconclusive: 110%
Cc1ccc2c(c1)C(=O)OC1(O)C3C4C=CC(C4)C3C(=O)N21 (stereo unspecified) | inconclusive: 101%
CCC(=O)NC(Nc1sc2c(c1C(=O)OC)CCCC2)(C(F)(F)F)C(F)(F)F | inactive: 102%
O=C(Cc1ccccc1Cl)Nc1nc2ccccc2[nH]1 | inconclusive: 113%
COc1ccc(C(=O)NCCNc2ccccc2[N+](=O)[O-])cc1 | inconclusive: 83.3%
CCC(=O)Nc1nnc(/C=C/c2ccc(OC)cc2)s1 | inconclusive: 836%
NC1=C(O)C(=O)C(c2ccccc2)O1 (stereo unspecified) | inconclusive: 152%
CCOc1ccccc1N1CCN(CC(=O)c2c(N)n(C)c(=O)n(C)c2=O)CC1 | inconclusive: 103%
Nc1nonc1-c1nc2ccccc2n1CC(=O)Nc1ccccc1 | inconclusive: 95.2%
Cc1nn(CCC#N)c(C)c1Oc1ccccc1O | inconclusive: 94.3%
Cc1oc(-c2ccccc2)cc1C(=O)NC1CCN(Cc2ccccc2)CC1 | inconclusive: 145%
CC(C)c1cc(C(=O)NNC(=S)NCc2ccco2)c(O)c(C(C)C)c1 | inactive: 101%
Cn1cnc([N+](=O)[O-])c1Sc1nc2ccccc2[nH]1 | inconclusive: -224%
COc1cc(C(=O)N=c2sc3c(C)ccc(OC)c3n2C)cc(OC)c1OC | inconclusive: 107%

Reformatted: entries from further up
Cc1ccc(NC(=O)c2nc[nH]c2C(=O)N2CCC(C)CC2)cc1
  binding response (% of control): inconclusive: 36.3%
Cn1c(Cc2ccc3c(c2)OCO3)nnc1SCC(=O)NC1CCCC1
  binding response (% of control): inactive: 91.2%

Some of these compounds in order of count of non-hydrogen atoms, high to low:
SMILES | binding response (% of control)
Nc1nonc1-c1nc2ccccc2n1CC(=O)Nc1ccccc1 | inconclusive: 95.2%
Cc1onc(-c2ccccc2)c1-c1nc2cc(Cl)ccc2c(=O)o1 | inconclusive: 112%
CC(=O)NC(CSc1cc(C)nc2ccc(Br)cc12)C(=O)O (stereo unspecified) | inconclusive: 311%
